Values joined by “and” are separate entries in the source; they are usually repeats but may differ in a detail not shown here. Identical values can stand only once.
Experiment: DPA residue on apples by gas chromatography after aerosol application of molten DPA (Example 1)
Set-up: species or system apples (Granny Smith, Red Delicious)
[1] = Red Delicious, cold air storage

## c1ccc(Nc2ccccc2)cc1 [DPA, diphenylamine]
Granny Smith, cold air storage
  DPA RESIDUE 8.5 Weeks: 1.9 PPM and 2.8 PPM and 2.7 PPM and 2.6 PPM
  DPA RESIDUE 14 Weeks: 0.8 PPM and 1.0 PPM and 1.1 PPM and 0.9 PPM
  DPA RESIDUE 18 Weeks: 0.6 PPM and 0.7 PPM and 0.5 PPM
Granny Smith, 20 weeks, cold air storage
  DPA RESIDUE 20 weeks: 0.6 PPM and 0.8 PPM and 0.5 PPM
[1]
  DPA RESIDUE 8.5 Weeks: 4.4 PPM and 4.2 PPM and 3.4 PPM and 3.6 PPM
  DPA RESIDUE 14 Weeks: 2.5 PPM and 3.1 PPM and 2.3 PPM and 2.8 PPM
  DPA RESIDUE 18 Weeks: 1.3 PPM and 1.9 PPM and 1.2 PPM and 1.6 PPM
Red Delicious, 16 Hours after application, Table 2
  DPA RESIDUE 16 Hours: 1.1 PPM and 1.3 PPM and 1.0 PPM and 1.2 PPM

From patent US20080103212A1, “Treatment of fruit in storage facility with solid derived diphenylamine anti scald agent” (priority 2006, published 2008)
